The target in assay [1] is cynomologous monkey FGFR1c/cynomologous monkey β-Klotho (co-transfected) (cynomologous monkey). The experiment in a line: flow cytometry, transfected HEK293T.
The target in assay [2] is human FGFR1c/human β-Klotho complex (FGF21 receptor) (human). The experiment in a line: flow cytometry, transfected HEK293T.

Results are given in words; binding and its absence hold for the method and conditions named. A result given as binding can be weak or reduced; the word gives no strength.

B1: 49G3.3 (antibody, V domains shown)
VH: QVTLKESGPVLVKPTETLTLTCTVSGFSLSNPRMGVSWIRQPPGKALEWLTHIFSNDEKSYSTSLKSRLTISKDTSKSQVVLSMTNMDPVDTATYYCVRVDTLNYHYYGMDVWGQGTTVTVSS
VL: DIQMTQSPSSLSASIGDRVTITCQASQGISNYLNWYQQKPGKAPKLLIYDASNLETGVPSRFSGSGSGTDFTFTISSLQPEDIATYYCHQYDDLPLTFGGGTKVEIRR
B1: the binding entry in assay [1] and in assay [2] was “binds” in each case.

Values taken from patent publication US20120328616A1.
